{"source": "PubChem BioAssay AID540256", "about": "(National Center for Advancing Translational Sciences (NCATS), 2011)", "note": "The campaign covered roughly 300,000 compounds. About 3,700 (1.2%) were called active. This list was built around the results that the source calls inconclusive (neither active nor inactive); the mix of calls is not that of the screen. Calls follow the shape of the full dose curve; tested in HEK293 cells. Potencies beside an inconclusive call are fits to weak or partial responses and may not hold up. % is scaled to controls: 0 for no effect and ±100 for the full control effect; potency is read from the fitted curve at half-maximal effect.", "data": [{"experiment": "qHTS for Inhibitors of binding or entry into cells for Lassa Virus; also: nearly all actives have a fitted effect of over 50% in size", "details": "Lassa virus pseudotype entry inhibition, cell reporter; activity change, negative = inhibition: at 37.9 µM (top of the series) unless noted", "values": [{"smiles": "CN(Cc1cccnc1)Cc1cn[nH]c1-c1ccc(-c2ccccc2)cc1", "activity change, negative = inhibition": "inactive: 2.09%"}, {"smiles": "CCOc1ccc(S(=O)(=O)N(C)CCO)cc1-c1nc2c(C(C)(C)C)nn(C)c2c(=O)[nH]1", "Potency": "active: 2.82 µM"}, {"smiles": "Cc1ccc(S(=O)(=O)N[C@H](C(=O)N2CCC(C(=O)N3CCC[C@H]3C(=O)O)CC2)C(C)C)cc1", "Potency": "inconclusive: 1.26 µM [activator, single point]"}, {"smiles": "COc1ccc(C(=O)NCCn2cc(SCC(=O)N3CCOCC3)c3ccccc32)cc1", "Potency": "inconclusive: 0.398 µM [activator, partial curve, poor fit]"}, {"smiles": "CC1=CC(C)CC(C)OC(=O)CC(c2ccc(O)cc2)NC(=O)C(Cc2c(Br)[nH]c3ccccc23)N(C)C(=O)C(C)NC(=O)C(C)C1", "note": "(stereo unspecified)", "Potency": "active: 0.398 µM"}, {"smiles": "CCOC(=O)N1CCN(C(=O)CCCn2nc(C)c3sc4ccccc4c3c2=O)CC1", "activity change, negative = inhibition": "inactive: -17.1%"}, {"smiles": "Cc1ccc(NCc2ccc(Cl)nc2)c(NCc2ccc(Cl)nc2)c1", "activity change, negative = inhibition": "inactive: -20.2% [at 46.1 µM]"}, {"smiles": "Cn1ccnc1SCCNC(=O)CCc1nnc(CCCCc2ccccc2)o1", "activity change, negative = inhibition": "inactive: 19% [at 46.1 µM]"}, {"smiles": "O=S(=O)(c1ccc(NC(=S)NCc2ccco2)cc1)N1CCCC1", "activity change, negative = inhibition": "inactive: -0.676%"}, {"smiles": "Cc1ccccc1S(=O)Cc1ccc(C(=O)N2CCN(c3cccc(C)c3C)CC2)o1", "note": "(stereo unspecified)", "Potency": "inconclusive: 10 µM [inhibitor, partial curve, poor fit]"}, {"smiles": "O=C(N/N=C/c1c(O)ccc2ccccc12)c1[nH]ncc1Br", "Potency": "active: 16.4 µM"}, {"smiles": "COc1cc(/C=C2/NC(=O)N(Cc3ccccc3F)C2=O)cc(OC)c1O", "Potency": "inconclusive: 17.8 µM [inhibitor, single point]"}, {"smiles": "CC(C)C1C(=O)N(Cc2cn(Cc3ccco3)nn2)CCS(=O)(=O)N1Cc1ccc(-c2ccccc2)cc1", "note": "(stereo unspecified)", "Potency": "inconclusive: 0.0063 µM [inhibitor, full curve, poor fit]"}, {"smiles": "COc1ccc(CCNCc2ccccc2N2CCCC2)cc1", "Potency": "inconclusive: 1.26 µM [inhibitor, full curve]"}, {"smiles": "O=C(CSc1nc2ccccc2o1)Nc1nc(-c2ccccc2)cs1", "activity change, negative = inhibition": "inactive: 16.3%"}, {"smiles": "COc1ccc(COC(=O)CN2C(=O)NC3(CC(C)CC(C)(C)C3)C2=O)cc1F", "note": "(stereo unspecified)", "Potency": "inconclusive: 7.08 µM [inhibitor, full curve]"}, {"smiles": "CCCCOC(=O)/C=C/c1ccc(OC(=O)OC)c(OC(=O)OC)c1", "Potency": "inconclusive: 10 µM [inhibitor, partial curve]"}, {"smiles": "Cc1cccc(N(CC(O)Cn2c3ccccc3c3ccccc32)S(=O)(=O)c2ccc(F)cc2)c1", "note": "(stereo unspecified)", "Potency": "inconclusive: 31.6 µM [inhibitor, single point]"}, {"smiles": "O=C1CCCN1CCCNC(=S)Nc1cccc2ccccc12", "activity change, negative = inhibition": "inactive: 12.3% [at 46.1 µM]"}, {"smiles": "Cc1ccc(C)n1CCN1CCN(C(=O)CSc2nc3ccccc3nc2N2CCOCC2)CC1", "activity change, negative = inhibition": "inactive: 4.83%"}, {"smiles": "COc1ccc(OC)c(CNS(=O)(=O)c2ccc3c(c2)CCCN3C(C)=O)c1", "activity change, negative = inhibition": "inactive: -13% [at 46.1 µM]"}, {"smiles": "Cc1cc(Cl)ccc1OCC(=O)N/N=C/c1ccc(OC2OC(CO)C(O)C(O)C2O)cc1", "note": "(stereo unspecified)", "Potency": "inconclusive: 11.2 µM [inhibitor, partial curve, poor fit]"}, {"smiles": "CCC1CCCCN1CCCNC(=O)C1CC(=O)N(CCc2ccccc2)C1", "note": "(stereo unspecified)", "Potency": "inconclusive: 6.31 µM [activator, partial curve]"}, {"smiles": "CN1C(=O)[C@@H]2[C@@H]3C[C@@H]([C@H]4ON=C(c5ccc(Cl)cc5)[C@@H]34)[C@@H]2C1=O", "activity change, negative = inhibition": "inactive: 11.8%"}, {"smiles": "COc1cccc(-c2nc(-c3ccc4c(c3)-c3ccccc3S4(=O)=O)c(-c3ccccc3)[nH]2)c1OC", "activity change, negative = inhibition": "inactive: -10.9%"}, {"smiles": "CC(=O)Nc1ccc(-c2csc(NC(=O)CCCc3cccs3)n2)cc1", "Potency": "inconclusive: 23.1 µM [inhibitor, single point]"}, {"smiles": "N#Cc1ccc(S(=O)(=O)NC2CCN(Cc3ccccc3)CC2)cc1", "activity change, negative = inhibition": "inactive: -0.271% [at 46.1 µM]"}, {"smiles": "CCOCCCn1c(SCC(=O)Nc2ccc(OC)cc2)nc2ccccc2c1=O", "activity change, negative = inhibition": "inactive: -0.931% [at 46.1 µM]"}, {"smiles": "COC(=O)c1cc2ccsc2n1CC(=O)Nc1cc(Cl)ccc1OC", "activity change, negative = inhibition": "inactive: -21.6%"}, {"smiles": "CCOc1ccc(CCNC(=O)c2cnc3sc(N(CC)CC)nn3c2=O)cc1OCC", "activity change, negative = inhibition": "inactive: 0.656% [at 46.1 µM]"}, {"smiles": "CC(=O)N1CCSc2ccc(S(=O)(=O)Nc3ccc(C)cc3)cc21", "activity change, negative = inhibition": "inactive: -5.91% [at 46.1 µM]"}, {"smiles": "Oc1c(N=NC(=S)Nc2ccccc2F)c2ccccc2n1Cc1cccc(Cl)c1", "Potency": "inconclusive: 1.78 µM [inhibitor, full curve]"}, {"smiles": "CN(CCCNC(=O)c1cc2c(Cl)nc3ccccc3c2s1)Cc1ccccc1", "Potency": "inconclusive: 35.5 µM [inhibitor, single point]"}, {"smiles": "O=C1CCCS(=O)(=O)c2ccccc21", "activity change, negative = inhibition": "inactive: -0.874%"}, {"smiles": "O=C1CC(c2cccs2)c2ccc3ccccc3c2N1", "note": "(stereo unspecified)", "Potency": "inconclusive: 5.01 µM [inhibitor, partial curve, poor fit]"}, {"smiles": "O=C(CSc1nn(-c2ccc(F)cc2)c(=S)s1)N1CCN(C(=O)c2ccco2)CC1", "activity change, negative = inhibition": "inactive: 4.13%"}, {"smiles": "CC1CCN(C2CCN(S(=O)(=O)c3ccc(C(F)(F)F)cc3)CC2)CC1", "activity change, negative = inhibition": "inactive: -12%"}, {"smiles": "COc1ccc(CC(=O)NCc2csc(-c3cccs3)n2)cc1OC", "Potency": "inconclusive: 25.1 µM [inhibitor, partial curve, poor fit]"}, {"smiles": "O=C(Nc1ccccc1Cl)C(Cl)C(=O)c1ccccc1", "note": "(stereo unspecified)", "activity change, negative = inhibition": "inactive: 5.24%"}, {"smiles": "COc1ccc(-c2nnc(SCC(=O)Nc3cccc(C(F)(F)F)c3)nc2-c2ccc(OC)cc2)cc1", "Potency": "inconclusive: 22.4 µM [inhibitor, partial curve, poor fit]"}, {"smiles": "Cc1ncc(CO)c(/C=N/NC(=O)c2ccoc2C)c1O", "activity change, negative = inhibition": "inactive: -21.6%"}, {"smiles": "CCOC(=O)c1ccc(CN(Cc2ccc(F)cc2)S(=O)(=O)c2ccc(F)c(C(=O)Nc3ccc(Cl)cc3F)c2)cc1", "activity change, negative = inhibition": "inactive: 27.8% [at 46.1 µM]"}, {"smiles": "O=C(O)CCCC(=O)Nc1ccc(Br)cc1C(=O)O", "activity change, negative = inhibition": "inactive: -8.51%"}, {"smiles": "COc1ccc(OC)c(Nc2ncnc3c2cnn3-c2ccccc2)c1", "activity change, negative = inhibition": "inactive: -9.59%"}, {"smiles": "CCOc1ccc(NC(=O)c2c(NCc3cccnc3)sc3c2CCCC3)cc1", "activity change, negative = inhibition": "inactive: -1.63% [at 46.1 µM]"}, {"smiles": "CNC(=O)N(O)C1N(/N=C/c2cccs2)C(=S)SC1(C)C", "note": "(stereo unspecified)", "Potency": "inconclusive: 3.98 µM [activator, single point]"}, {"smiles": "CCOc1cc(Br)c(C(=O)O)cc1OCC", "activity change, negative = inhibition": "inactive: 0.417%"}, {"smiles": "CC(=N)C1=C(O)CC(c2ccccc2)CC1=O", "note": "(stereo unspecified)", "activity change, negative = inhibition": "inactive: 12.2%"}, {"smiles": "CC(C)C(NC(=O)c1ccccc1F)C(=O)NCCc1ccccn1", "note": "(stereo unspecified)", "Potency": "inconclusive: 3.55 µM [inhibitor, single point]"}, {"smiles": "CCOC(=O)Cc1csc(NC(=O)c2ccc3ccccc3n2)n1", "Potency": "inconclusive: 8.91 µM [inhibitor, partial curve, poor fit]"}, {"smiles": "COc1ccc(NC(=O)CC#N)cc1OC", "Potency": "inconclusive: 0.461 µM [activator, partial curve]"}, {"smiles": "Cc1ccccc1-c1nn2c(=O)cc(CN3CCN(C(=O)/C=C/c4ccccc4)CC3)nc2s1", "activity change, negative = inhibition": "inactive: 6.48% [at 46.1 µM]"}, {"smiles": "COC(C(=O)Nc1ccc(S(=O)(=O)Nc2ccc(C)c(C)c2)cc1)c1ccccc1", "note": "(stereo unspecified)", "Potency": "inconclusive: 25.9 µM [inhibitor, single point]"}, {"smiles": "COc1ccc(COC(=O)NN=C2C[C@@H](O)[C@@H](O)[C@@H]3[C@H]4C(=O)N(c5cccc(Oc6ccccc6)c5)C(=O)[C@@H]4CC[C@H]23)cc1", "Potency": "inconclusive: 3.35 µM [inhibitor, single point]"}, {"smiles": "COc1ccc(CNC(=O)C(=O)NCC2OCCN2S(=O)(=O)c2ccc3c(c2)OCCO3)cc1", "note": "(stereo unspecified)", "activity change, negative = inhibition": "inactive: -9.42%"}, {"smiles": "Cc1cccc(N2C(N)=C(C#N)C(C#N)(C#N)C2c2ccccc2)c1", "note": "(stereo unspecified)", "Potency": "inconclusive: 15.8 µM [inhibitor, single point]"}, {"smiles": "CCN(CC)S(=O)(=O)c1ccc2c(c1)nc(SCC(=O)NCC1CCCO1)n2CC", "note": "(stereo unspecified)", "Potency": "inconclusive: 0.891 µM [inhibitor, full curve, poor fit]"}, {"smiles": "O=[N+]([O-])c1ccc(N/N=C/c2cccnc2)cc1", "activity change, negative = inhibition": "inactive: -4.75%"}, {"smiles": "CCCn1c(=S)[nH]c2sc3c(c2c1=O)CCCC3", "Potency": "inconclusive: 11.2 µM [inhibitor, partial curve, poor fit]"}, {"smiles": "CCn1c2ccccc2c2nnc(SCC(=O)Nc3ccccc3OC)nc21", "Potency": "inconclusive: 3.16 µM [activator, single point]"}, {"smiles": "CCOc1ccccc1CNC(=O)c1cc(-c2ccc(Cl)s2)nc2ccccc12", "activity change, negative = inhibition": "inactive: -2.61% [at 46.1 µM]"}, {"smiles": "COc1ccc(CCNC(=O)CSc2nnc(-c3ccc(F)cc3)c3ccccc23)cc1OC", "activity change, negative = inhibition": "inactive: -9.99%"}, {"smiles": "Cc1ccc(S(=O)(=O)Nc2ccccc2/C=N/c2nc3ccccc3n2C)cc1", "Potency": "inconclusive: 7.08 µM [inhibitor, full curve, poor fit]"}, {"smiles": "Cc1ccccc1Nc1nc(N)nc(CCl)n1", "Potency": "inconclusive: 17.8 µM [inhibitor, partial curve, poor fit]"}, {"smiles": "O=S(=O)(NCC(c1cccs1)S(=O)(=O)c1ccccc1)c1ccc(F)cc1", "note": "(stereo unspecified)", "activity change, negative = inhibition": "inactive: -10.3% [at 46.1 µM]"}, {"smiles": "O=C(NC(=S)Nc1ccc2c(c1)OCCO2)c1ccc(F)cc1Cl", "activity change, negative = inhibition": "inactive: -2.08%"}, {"smiles": "CCCCOc1ccc(S(=O)(=O)NCc2csc(C)n2)cc1", "activity change, negative = inhibition": "inactive: -4.48%"}, {"smiles": "O=C(C1CC(=O)N(C2CCCC2)C1)N1CCC(Cc2ccccc2)CC1", "note": "(stereo unspecified)", "activity change, negative = inhibition": "inactive: 0.696%"}, {"smiles": "Cc1ccnc(NC(=O)c2ccc(S(=O)(=O)N3CCCCCC3)cc2)c1", "Potency": "inconclusive: 35.5 µM [inhibitor, single point]"}, {"smiles": "O=C(CSc1nc2scc(-c3ccco3)c2c(=O)n1-c1ccccc1)N1CCOCC1", "Potency": "active: 4.11 µM"}, {"smiles": "O=C(c1ccc2c(c1)OCCO2)N(Cc1cccnc1)c1nc2c(Cl)cccc2s1", "activity change, negative = inhibition": "inactive: -20.4% [at 46.1 µM]"}, {"smiles": "CCOC(=O)CSc1n[nH]c(=S)s1", "activity change, negative = inhibition": "inactive: 14.6% [at 46.1 µM]"}, {"smiles": "CN(C)C(=O)Oc1ccc2ccccc2c1Cl", "Potency": "inconclusive: 29.1 µM [inhibitor, single point]"}, {"smiles": "CC(=O)Nc1cccc(C(=O)/C=C/c2ccc(C)cc2)c1", "Potency": "inconclusive: 10 µM [inhibitor, partial curve]"}, {"smiles": "Cc1ccc(NC(=O)C2CCCN(S(=O)(=O)c3cccc4nonc34)C2)cc1", "note": "(stereo unspecified)", "activity change, negative = inhibition": "inactive: -0.0376%"}, {"smiles": "Cc1ccc(C=Nc2ccccc2C(N)=O)s1", "Potency": "inconclusive: 5.62 µM [inhibitor, single point]"}]}]}
